{
  "source": "patent US7469185B2",
  "about": "“Primary rat hepatocyte toxicity modeling” (Ocimum Biosolutions, Inc., priority 2002, dated 2008)",
  "system": "primary rat hepatocytes",
  "experiment": "Microarray gene expression analysis (Affymetrix rat array) of toxin-exposed hepatocytes, with linear discriminant score",
  "format": "cell-based",
  "details": "24 hrs, high dose",
  "experimental": "Identification of toxicity markers was performed by microarray analysis and by the AlamarBlue® assay, a classical measure of cytotoxicity. The AlamarBlue® assay was performed in triplicate.\nThe source of the primary rat hepatocytes was Sprague Dawley Outbred CDs Rats (CRL:CD®[SD] IGS BR, Charles River Laboratories). […] Primary rat hepatocytes were received the day after the cells were removed from the animals. After arrival, the cells, the cells were incubated overnight (˜15 hrs) before the toxin was added to the cultures. […] Toxin or vehicle was administered to hepatocyte cultures as follows. For each treatment, i.e., vehicle alone, vehicle+toxin at low dose, or vehicle+toxin at high dose, cells were harvested after 3, 6 and 24-hour incubations with the toxin solution or with the vehicle.\nMore than 10^7 cells are typically prepared for each sample. RNA was collected at 3, 6 and 24 hours following addition of the toxin according to the following procedure.\nEach flask contained ˜10-20 million cells. The contents of each flask were mixed vigorously for one minute with a vortex mixer and then aspirated up and down 5 times with a pipette. The contents of each flask (˜12 ml each) was collected into a 50 ml conical polypropylene tissue culture tube (Falcon), snap frozen in liquid nitrogen and stored at ≦−86° C.\nMicroarray sample preparation was conducted with minor modifications, following the protocols set forth in the Affymetrix GeneChip® Expression Analysis Manual. Frozen cells were ground to a powder using a Spex Certiprep 6800 Freezer Mill. Total RNA was extracted with Trizol (GibcoBRL) utilizing the manufacturer's protocol. […] Double stranded cDNA was generated from mRNA using the SuperScript Choice system (GibcoBRL). First strand cDNA synthesis was primed with a T7-(dT24) oligonucleotide. The cDNA was phenol-chloroform extracted and ethanol precipitated to a final concentration of […]. From 2 μg of cDNA, cRNA was synthesized using Ambion's T7 MegaScript in vitro Transcription Kit.\nTo biotin label the cRNA, nucleotides Bio-11-CTP and Bio-16-UTP (Enzo Diagnostics) were added to the reaction. Following a 37° C. incubation for six hours, impurities were removed from the labeled cRNA following the RNeasy Mini kit protocol (Qiagen). cRNA was fragmented (fragmentation buffer consisting of 200 mM Tris-acetate, pH 8.1, 500 mM KOAc, 150 mM MgOAc) for thirty-five minutes at 94° C. Following the Affymetrix protocol, 55 μg of fragmented cRNA was hybridized on the Affymetrix rat array set for twenty-four hours at 60 rpm in a 45° C. hybridization oven. The chips were washed and stained with Streptavidin Phycoerythrin (SAPE) (Molecular Probes) in Affymetrix fluidics stations. To amplify staining, SAPE solution was added twice with an anti-streptavidin biotinylated antibody (Vector Laboratories) staining step in between. Hybridization to the probe arrays was detected by fluorometric scanning (Hewlett Packard Gene Array Scanner). Data was analyzed using Affymetrix GeneChip® version 3.0 and Expression Data Mining Tool (EDMT) software (version 1.0), S-Plus, and the GeneExpress® software system.\nEach gene is identified by its Gene Logic identification number and can be cross-referenced to a gene name and representative SEQ ID NO. in Table 1.",
  "data": [
    {"smiles": "CCCCc1oc2ccccc2c1C(=O)c1cc(I)c(OCCN(CC)CC)c(I)c1", "note": "[Amiodarone]", "values": [
      {"measurement": "Mean Tox, GLGC ID NO. 382", "result": "−29.6223"},
      {"measurement": "Mean Tox, GLGC ID NO. 570", "result": 508.8248},
      {"measurement": "Mean Tox, GLGC ID NO. 575", "result": 31.8003},
      {"measurement": "Mean Tox, GLGC ID NO. 588", "result": 82.1803},
      {"measurement": "Mean Tox, GLGC ID NO. 670", "result": 81.5793},
      {"measurement": "Mean Tox, GLGC ID NO. 771", "result": 91.2233},
      {"measurement": "Mean Tox, GLGC ID NO. 818", "result": 380.2108},
      {"measurement": "Mean Tox, GLGC ID NO. 820", "result": 143.5745},
      {"measurement": "Mean Tox, GLGC ID NO. 1037", "result": 164.9610},
      {"measurement": "Mean Tox, GLGC ID NO. 1130", "result": 302.9488},
      {"measurement": "Mean Tox, GLGC ID NO. 1146", "result": 96.6360},
      {"measurement": "Mean Tox, GLGC ID NO. 1148", "result": 590.6433},
      {"measurement": "Mean Tox, GLGC ID NO. 1376", "result": 31.9268},
      {"measurement": "Mean Tox, GLGC ID NO. 1504", "result": 81.2268},
      {"measurement": "Mean Tox, GLGC ID NO. 1546", "result": 30.2790},
      {"measurement": "Mean Tox, GLGC ID NO. 1583", "result": 219.5193},
      {"measurement": "Mean Tox, GLGC ID NO. 1798", "result": 339.0583},
      {"measurement": "Mean Tox, GLGC ID NO. 1818", "result": 302.7925},
      {"measurement": "Mean Tox, GLGC ID NO. 1850", "result": 806.1135},
      {"measurement": "Mean Tox, GLGC ID NO. 1854", "result": 714.9543},
      {"measurement": "Mean Tox, GLGC ID NO. 1925", "result": 197.1045},
      {"measurement": "Mean Tox, GLGC ID NO. 1942", "result": "−4.0835"},
      {"measurement": "Mean Tox, GLGC ID NO. 2528", "result": 556.9448},
      {"measurement": "Mean Tox, GLGC ID NO. 2818", "result": 739.8768},
      {"measurement": "Mean Tox, GLGC ID NO. 3062", "result": 390.7458},
      {"measurement": "Mean Tox, GLGC ID NO. 3475", "result": 215.6923},
      {"measurement": "Mean Tox, GLGC ID NO. 3917", "result": 54.9983},
      {"measurement": "Mean Tox, GLGC ID NO. 4517", "result": 115.6470},
      {"measurement": "Mean Tox, GLGC ID NO. 4521", "result": 142.5955},
      {"measurement": "Mean Tox, GLGC ID NO. 4547", "result": 164.5733},
      {"measurement": "Mean Tox, GLGC ID NO. 4593", "result": 579.0483},
      {"measurement": "Mean Tox, GLGC ID NO. 4594", "result": 966.2893},
      {"measurement": "Mean Tox, GLGC ID NO. 5355", "result": 178.6520},
      {"measurement": "Mean Tox, GLGC ID NO. 5377", "result": 87.0393},
      {"measurement": "Mean Tox, GLGC ID NO. 5497", "result": 35.1683},
      {"measurement": "Mean Tox, GLGC ID NO. 6005", "result": 984.5308},
      {"measurement": "Mean Tox, GLGC ID NO. 6049", "result": 2163.6495},
      {"measurement": "Mean Tox, GLGC ID NO. 6425", "result": 258.8950},
      {"measurement": "Mean Tox, GLGC ID NO. 6808", "result": 812.3230},
      {"measurement": "Mean Tox, GLGC ID NO. 7147", "result": 508.5110},
      {"measurement": "Mean Tox, GLGC ID NO. 7359", "result": 273.9243},
      {"measurement": "Mean Tox, GLGC ID NO. 7459", "result": 678.6165},
      {"measurement": "Mean Tox, GLGC ID NO. 7596", "result": 400.8305},
      {"measurement": "Mean Tox, GLGC ID NO. 7683", "result": 1272.7238},
      {"measurement": "Mean Tox, GLGC ID NO. 8057", "result": 76.9045},
      {"measurement": "Mean Tox, GLGC ID NO. 8182", "result": 255.6065},
      {"measurement": "Mean Tox, GLGC ID NO. 8266", "result": 606.4828},
      {"measurement": "Mean Tox, GLGC ID NO. 8599", "result": 90.3548},
      {"measurement": "Mean Tox, GLGC ID NO. 8926", "result": 358.0805},
      {"measurement": "Mean Tox, GLGC ID NO. 9399", "result": 391.2453},
      {"measurement": "Mean Tox, GLGC ID NO. 10503", "result": 55.4060},
      {"measurement": "Mean Tox, GLGC ID NO. 11173", "result": 156.9755},
      {"measurement": "Mean Tox, GLGC ID NO. 11550", "result": 93.4875},
      {"measurement": "Mean Tox, GLGC ID NO. 12299", "result": 215.0775},
      {"measurement": "Mean Tox, GLGC ID NO. 12354", "result": 473.1683},
      {"measurement": "Mean Tox, GLGC ID NO. 12479", "result": 428.2905},
      {"measurement": "Mean Tox, GLGC ID NO. 12769", "result": 172.1220},
      {"measurement": "Mean Tox, GLGC ID NO. 12908", "result": 721.7805},
      {"measurement": "Mean Tox, GLGC ID NO. 12916", "result": 64.4325},
      {"measurement": "Mean Tox, GLGC ID NO. 13005", "result": 304.0158},
      {"measurement": "Mean Tox, GLGC ID NO. 14034", "result": 164.4735},
      {"measurement": "Mean Tox, GLGC ID NO. 14656", "result": 157.5353},
      {"measurement": "Mean Tox, GLGC ID NO. 15500", "result": 645.6283},
      {"measurement": "Mean Tox, GLGC ID NO. 15644", "result": 846.1423},
      {"measurement": "Mean Tox, GLGC ID NO. 15661", "result": 64.1050},
      {"measurement": "Mean Tox, GLGC ID NO. 15682", "result": 109.9260},
      {"measurement": "Mean Tox, GLGC ID NO. 15891", "result": 664.6183},
      {"measurement": "Mean Tox, GLGC ID NO. 16017", "result": 93.8553},
      {"measurement": "Mean Tox, GLGC ID NO. 16018", "result": 249.3688},
      {"measurement": "Mean Tox, GLGC ID NO. 16314", "result": 117.0538},
      {"measurement": "Mean Tox, GLGC ID NO. 16346", "result": 354.4890},
      {"measurement": "Mean Tox, GLGC ID NO. 16376", "result": 36.7405},
      {"measurement": "Mean Tox, GLGC ID NO. 16496", "result": 405.5363},
      {"measurement": "Mean Tox, GLGC ID NO. 16524", "result": 85.1848}
    ]}
  ]
}
